# In PubChem BioAssay AID540256 (National Center for Advancing Translational Sciences (NCATS), 2011):
# Among all 300,000 compounds or so, about 3,700 (1.2%) were called active. The inconclusive results got no clear call from the source; some entries with a clear call stand among them for comparison. The call rests on the fitted dose curve; tested in HEK293 cells. A potency beside an inconclusive call is a rough fit, not a confirmed value.
# Test: qHTS for Inhibitors of binding or entry into cells for Lassa Virus; further: nearly all actives have a fitted effect of over 50% in size
# Conditions: Lassa virus pseudotype entry inhibition, cell reporter; series mostly up to 37.9 µM
# Potency means the concentration at half of the fitted maximal effect.
row,SMILES,Potency
1,COC(=O)Nc1ccc(C)c(NC(=O)OC)c1,inactive
2,O=C1CCC(C(=O)OCC(=O)N2N=C3/C(=C\c4ccccc4)CCCC3C2c2ccccc2)N1 (stereo unspecified),"inconclusive: 35.5 µM [inhibitor, single point]"
3,S=c1nc(-c2ccc(Cl)cc2)[nH][nH]1,"inconclusive: 5.62 µM [activator, full curve]"
4,Cc1ccc(S(=O)(=O)c2c(C(=O)c3ccccc3)cnc3cc4c(cc23)OCCO4)cc1,"inconclusive: 14.1 µM [inhibitor, partial curve, poor fit]"
5,O=C(Nc1cccc(Cl)c1)N(CCN1CCOCC1)Cc1cccc(Cl)c1,inactive
6,CCOc1ccc(OCc2cccc(C(=O)Nc3ccc(CN4CCCCC4)cc3)c2)cc1,"inconclusive: 4.47 µM [activator, partial curve, poor fit]"
7,Cc1ccc(NS(=O)(=O)c2cc(C(N)=O)ccc2C)cc1,"inconclusive: 5.8 µM [activator, single point]"
8,O=C(NCc1cccnc1)c1ccccn1,inactive
9,O=C(/C=C/c1ccc([N+](=O)[O-])cc1)NCc1cccs1,"inconclusive: 20.6 µM [inhibitor, partial curve, poor fit]"
10,NC(=S)n1[nH]c(-c2ccc([N+](=O)[O-])cc2)c(N=Nc2cccc([N+](=O)[O-])c2)c1=O,"inconclusive: 35.5 µM [inhibitor, single point]"
11,O=C(CNc1ccccc1OC(F)F)N1CCc2ccccc21,inactive
12,CC1CCC(=NO)C(=NO)C1 (stereo unspecified),"inconclusive: 0.794 µM [inhibitor, single point]"
13,Cn1cccc1/C=N/NC(=O)c1cccnc1,inactive
14,CNS(=O)(=O)c1ccc(N2CCCC2=O)c([N+](=O)[O-])c1,"inconclusive: 0.316 µM [inhibitor, partial curve, poor fit]"
15,CCOc1ccc(N(C)c2ccc(/C=C3/SC(=S)NC3=O)cc2)cc1,"inconclusive: 20 µM [inhibitor, partial curve, poor fit]"
16,CC(=O)c1c(C)[nH]c(C(=O)NC2=NCCS2)c1C,inactive
17,OCC1(Cc2ccccc2)CCCN(Cc2cnn(-c3ccccc3)c2)C1 (stereo unspecified),"inconclusive: 25.1 µM [inhibitor, single point]"
18,Cc1ccccc1-c1nc(CN2CCC(C(=O)NCCc3ccccc3)CC2)c(C)o1,inactive
19,O=C(OCC1CCCN2CCCCC12)c1ccc2c(c1)OCO2 (stereo unspecified),inactive
20,COc1ccc(CNC(=O)C2CCCN(C(=O)N3CCOc4ccccc43)C2)cc1 (stereo unspecified),inactive
21,O=C(CN1C(=O)NC2(CCc3ccccc32)C1=O)Nc1cc(C(F)(F)F)ccc1N1CCOCC1 (stereo unspecified),"inconclusive: 1.83 µM [inhibitor, partial curve, poor fit]"
22,Cc1ccccc1OCC(=O)NNC(=O)C1CCN(c2ncnc3sc(C)c(C)c23)CC1,inactive
23,O=S(=O)(NCc1cccnc1)c1cccn1-c1ncc(C(F)(F)F)cc1Cl,inactive

row,SMILES,Potency
1,COc1ccc(CN2CCN(Cc3ccccc3C(F)(F)F)CC2)c(OC)c1,"inconclusive: 11.2 µM [inhibitor, partial curve, poor fit]"
2,COc1ccc(C(=O)N2N=C(c3ccc(NS(C)(=O)=O)cc3)CC2c2cccs2)cc1 (stereo unspecified),"inconclusive: 22.4 µM [inhibitor, single point]"
3,Cc1ccnc(NC(=S)NC(=O)c2cccs2)c1,"inconclusive: 1 µM [activator, partial curve, poor fit]"
4,CCNC(=O)OCc1cn(-c2ccccc2)nn1,"inconclusive: 14.1 µM [activator, single point]"
5,CCN(CC)S(=O)(=O)c1ccc(N2CCCC2)c(NC(=O)c2ccc([N+](=O)[O-])o2)c1,"inconclusive: 35.5 µM [inhibitor, single point]"
6,Cc1cc(NC(=O)NCc2ccccc2)c(=O)n(Cc2ccc(F)cc2)c1,"inconclusive: 6.31 µM [inhibitor, partial curve, poor fit]"
7,CSc1n[nH]c(NC(C)=O)n1,inactive
8,O=C(NC(=S)Nc1ccccc1OC(F)F)c1ccc2c(c1)OCO2,inactive
9,CCOC(=O)C1CCN(CC(O)COc2ccc(C(C)(C)C)cc2)CC1 (stereo unspecified),"inconclusive: 35.5 µM [inhibitor, single point]"
10,S=C(c1ccc(N2CCCC2)c(Br)c1)N1CCCCC1,inactive
11,COc1cc(/C=C/C2=CC(C)(C)NC(=S)N2)cc(OC)c1OC,inactive
12,COCCNC(=O)CN(c1cc(C(F)(F)F)ccc1Cl)S(C)(=O)=O,"inconclusive: 32.6 µM [activator, single point]"
13,COc1cccc(-n2c(/C=C\c3ccc(Cl)cc3)nc3ccccc3c2=O)c1,inactive
14,COc1cc2nc(N3CCN(C(=O)OCc4ccccc4)C(C(=O)NC(C)(C)C)C3)nc(N)c2cc1OC (stereo unspecified),"inconclusive: 20.6 µM [inhibitor, single point]"
15,Cc1cccc2c1-c1sc(C(=O)Nc3cccc([N+](=O)[O-])c3C)cc1CO2,"inconclusive: 0.501 µM [inhibitor, full curve, poor fit]"
16,O=C(Nc1ccc(S(=O)(=O)N2CCOCC2)cc1)c1ccc(F)cc1,inactive
17,COc1ccc(C(=O)Nc2ccc(N3CCN(C)CC3)cc2)cc1[N+](=O)[O-],"inconclusive: 1.12 µM [inhibitor, single point]"
18,Cc1cccc(NC2=NCC(=O)N2Cc2cccs2)c1,"inconclusive: 11.2 µM [activator, partial curve]"
19,Cc1ccc(/C=N\NC(=O)c2cc(OCC(F)(F)F)ccc2OCC(F)(F)F)cc1,"inconclusive: 12.6 µM [inhibitor, partial curve]"
20,Cc1ccc(S(=O)(=O)c2nnn3c2nc(NC(C)c2ccccc2)c2sccc23)cc1 (stereo unspecified),inactive
21,N#CCCn1cc(C=O)c(-c2cccs2)n1,inactive
22,O=C(NCc1ccc(Cl)cc1)c1ccc(-c2ccccc2C(F)(F)F)o1,active: 5.17 µM
23,CCN(CC(=O)Nc1ccccc1C(F)(F)F)C(=O)CCS(=O)(=O)c1ccc(Cl)cc1,"inconclusive: 1 µM [activator, single point]"

# Arranged by molar mass (descending): part of the list above.
row,SMILES,Potency
9,CCOC(=O)C1CCN(CC(O)COc2ccc(C(C)(C)C)cc2)CC1 (stereo unspecified),"inconclusive: 35.5 µM [inhibitor, single point]"
21,N#CCCn1cc(C=O)c(-c2cccs2)n1,inactive
7,CSc1n[nH]c(NC(C)=O)n1,inactive
